Measurements published in PMC11423089.
No constants are given. Whether binding was seen depends on the method and setting. In cells and extracts the contact can be indirect. Binding calls can cover weak binding; strength is not graded here. For some assays here: Where a sequence is shown, tags or fusion partners need not be part of it.

Sequences of proteins named here, by UniProt entry; tags and fusion partners are left off. A change or cut given only in a name is not applied to a line headed by its entry.
UniProt Q96RR4: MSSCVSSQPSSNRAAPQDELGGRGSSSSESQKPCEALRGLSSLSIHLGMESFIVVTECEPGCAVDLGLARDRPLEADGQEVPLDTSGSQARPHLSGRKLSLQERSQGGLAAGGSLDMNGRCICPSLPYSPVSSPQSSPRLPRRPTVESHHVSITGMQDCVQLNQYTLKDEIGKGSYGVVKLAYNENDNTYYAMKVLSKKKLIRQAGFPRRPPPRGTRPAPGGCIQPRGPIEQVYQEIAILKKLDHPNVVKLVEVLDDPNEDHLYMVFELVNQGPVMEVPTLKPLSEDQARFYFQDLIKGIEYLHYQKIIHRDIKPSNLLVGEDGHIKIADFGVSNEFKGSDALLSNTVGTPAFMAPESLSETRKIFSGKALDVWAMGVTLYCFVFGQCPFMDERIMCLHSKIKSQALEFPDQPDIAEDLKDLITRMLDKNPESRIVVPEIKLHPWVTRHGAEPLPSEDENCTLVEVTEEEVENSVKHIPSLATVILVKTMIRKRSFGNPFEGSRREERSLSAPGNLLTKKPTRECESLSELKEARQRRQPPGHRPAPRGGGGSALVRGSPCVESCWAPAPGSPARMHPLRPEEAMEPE
UniProt P67775: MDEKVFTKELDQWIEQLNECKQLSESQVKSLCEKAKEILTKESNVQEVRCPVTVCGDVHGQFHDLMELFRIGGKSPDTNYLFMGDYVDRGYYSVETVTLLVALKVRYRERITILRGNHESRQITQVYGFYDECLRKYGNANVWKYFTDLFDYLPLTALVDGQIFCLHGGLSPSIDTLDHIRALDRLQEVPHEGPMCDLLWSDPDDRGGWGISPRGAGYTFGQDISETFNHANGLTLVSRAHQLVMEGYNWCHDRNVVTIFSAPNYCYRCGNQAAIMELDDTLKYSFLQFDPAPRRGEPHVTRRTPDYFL

How the values were obtained:
[1] = molecular target: calcium/calmodulin‐dependent protein kinase kinase 2 (CaMKK2) (human (endogenous in A549)) (UniProt Q96RR4); assay: co-IP; endogenous proteins from A549 lysates (lysis buffer A: 20 mM HEPES pH 7.5, 150 mM NaCl, 1 mM EDTA, 2 mM EGTA, 1% Triton X-100, 10% glycerol); 1 µg antibody against TIPRL, CaMKK2 or PP2Ac, or normal IgG, protein G sepharose, overnight at 4 °C; for CaMKK2 with PP2Ac the cells were transfected with siTIPRL or control siRNA, or overexpressed TIPRL
[2] = molecular target: T1, His‐tagged TIPRL (pTIPRL‐His) in HEK293 cells (UniProt O75663); assay: co-IP; HEK293 cells co-transfected with pTIPRL-His and pHA-CaMKK2 or deletion mutants; precipitated using TIPRL
T1 sequence: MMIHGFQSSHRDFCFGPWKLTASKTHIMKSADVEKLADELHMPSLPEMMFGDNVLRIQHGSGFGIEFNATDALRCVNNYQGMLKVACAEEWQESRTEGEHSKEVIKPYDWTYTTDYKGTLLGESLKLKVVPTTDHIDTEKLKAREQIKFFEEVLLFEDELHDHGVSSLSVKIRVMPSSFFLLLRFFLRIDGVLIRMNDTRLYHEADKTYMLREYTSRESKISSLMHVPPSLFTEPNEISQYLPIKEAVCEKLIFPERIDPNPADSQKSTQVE

catalytic subunit of protein phosphatase 2A (PP2Ac) (from UniProt P67775) (enzyme)
binding [1]: binds

hemagglutinin‐tagged CaMKK2 C‐terminal region (447–540) (domain or fragment)
binding [2]: binds
